The source made the active and inactive calls. The rule behind the calls is not given here.
Experiments:
[1] = molecular target: T1, Androgen receptor (Homo sapiens) (UniProt P10275); conditions: MDA-kb2
T1 sequence (whole entry): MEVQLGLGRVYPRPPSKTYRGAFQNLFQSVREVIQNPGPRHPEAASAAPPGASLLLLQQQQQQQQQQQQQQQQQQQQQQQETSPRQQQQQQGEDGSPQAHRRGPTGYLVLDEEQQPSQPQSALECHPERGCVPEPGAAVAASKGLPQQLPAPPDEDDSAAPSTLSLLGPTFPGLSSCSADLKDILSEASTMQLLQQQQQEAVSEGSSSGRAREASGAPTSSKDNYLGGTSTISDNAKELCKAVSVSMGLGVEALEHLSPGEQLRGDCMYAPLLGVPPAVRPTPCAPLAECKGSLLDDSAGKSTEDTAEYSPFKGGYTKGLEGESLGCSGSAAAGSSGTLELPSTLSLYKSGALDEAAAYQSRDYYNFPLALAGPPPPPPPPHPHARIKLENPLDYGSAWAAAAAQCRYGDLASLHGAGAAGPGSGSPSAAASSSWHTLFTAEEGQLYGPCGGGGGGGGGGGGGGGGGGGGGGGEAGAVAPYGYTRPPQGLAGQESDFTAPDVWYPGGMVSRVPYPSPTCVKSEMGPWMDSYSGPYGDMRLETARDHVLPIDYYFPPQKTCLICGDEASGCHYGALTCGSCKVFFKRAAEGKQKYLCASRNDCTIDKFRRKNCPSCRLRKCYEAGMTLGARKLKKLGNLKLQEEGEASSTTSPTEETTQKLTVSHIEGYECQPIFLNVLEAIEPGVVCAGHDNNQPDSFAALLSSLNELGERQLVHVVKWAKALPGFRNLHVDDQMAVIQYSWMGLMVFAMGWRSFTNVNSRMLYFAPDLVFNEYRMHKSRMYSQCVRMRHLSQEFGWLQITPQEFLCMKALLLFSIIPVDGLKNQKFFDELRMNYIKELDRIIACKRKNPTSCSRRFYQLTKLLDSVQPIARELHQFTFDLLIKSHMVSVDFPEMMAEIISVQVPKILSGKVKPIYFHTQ

[2] = molecular target: T2, Glucocorticoid receptor (Homo sapiens) (UniProt P04150); conditions: MDA-kb2
T2 sequence (whole entry): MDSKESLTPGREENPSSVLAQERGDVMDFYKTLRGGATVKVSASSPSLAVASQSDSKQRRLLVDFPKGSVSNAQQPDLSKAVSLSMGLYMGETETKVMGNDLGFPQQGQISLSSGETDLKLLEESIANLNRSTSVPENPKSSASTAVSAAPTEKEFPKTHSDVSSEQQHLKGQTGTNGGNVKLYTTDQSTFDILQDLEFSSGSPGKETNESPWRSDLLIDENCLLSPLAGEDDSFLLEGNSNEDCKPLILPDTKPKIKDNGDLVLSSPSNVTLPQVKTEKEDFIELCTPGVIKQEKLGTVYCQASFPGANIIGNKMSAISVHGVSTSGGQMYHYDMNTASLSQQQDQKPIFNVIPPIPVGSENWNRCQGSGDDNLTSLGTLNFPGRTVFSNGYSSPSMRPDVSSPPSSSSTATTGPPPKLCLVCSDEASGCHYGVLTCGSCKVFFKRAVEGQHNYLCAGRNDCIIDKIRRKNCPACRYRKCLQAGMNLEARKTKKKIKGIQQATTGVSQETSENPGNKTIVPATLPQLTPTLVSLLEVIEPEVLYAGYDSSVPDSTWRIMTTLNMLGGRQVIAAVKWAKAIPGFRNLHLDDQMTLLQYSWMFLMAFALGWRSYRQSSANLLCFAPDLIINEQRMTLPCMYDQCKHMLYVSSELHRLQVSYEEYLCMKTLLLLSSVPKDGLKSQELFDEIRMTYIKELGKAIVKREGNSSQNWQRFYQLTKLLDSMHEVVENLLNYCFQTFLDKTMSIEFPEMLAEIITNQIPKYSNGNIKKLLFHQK

EC150 [1]: inactive
EC150 [2]: inactive
Structure (SMILES): O=C1CC(c2ccccc2)Oc2cc(O)ccc21 (configuration not stated)

Reference: ChEMBL document CHEMBL1153076, “Effect of flavonoids on androgen and glucocorticoid receptors based on in vitro reporter gene assay” (Bioorg Med Chem Lett, 2009)
